No constants are given. Whether binding was seen depends on the method and setting. Binding seen in cells or lysates may run through a third protein. Some entries that bind do so weakly or less than the wild type. Tags and fused reporters may be left off the sequences shown.
Molecular target: T1, Flag-tagged N-myc (and STAT) interactor (NMI) (human), Q13287
T1 chain: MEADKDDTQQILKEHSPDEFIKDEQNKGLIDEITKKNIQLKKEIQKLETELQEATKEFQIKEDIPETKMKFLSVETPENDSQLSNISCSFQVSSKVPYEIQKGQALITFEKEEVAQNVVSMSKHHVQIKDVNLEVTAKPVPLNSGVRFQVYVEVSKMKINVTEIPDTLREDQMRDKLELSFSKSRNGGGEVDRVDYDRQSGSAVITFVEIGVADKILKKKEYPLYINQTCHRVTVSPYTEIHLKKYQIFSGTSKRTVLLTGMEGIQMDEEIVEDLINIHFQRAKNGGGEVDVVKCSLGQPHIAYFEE
Experiment: co-IP; U251 cells stably overexpressing Flag-tagged NMI and STAT1 (α or β) via lentivirus; NP-40 lysis buffer (50 mM Tris-HCl pH 7.5, 150 mM NaCl, 1% NP-40); anti-Flag M2 magnetic beads overnight at 4°C, four washes; blot with STAT1 antibody
Settings: remark: other sources report otherwise

B1: STAT1α (STAT1 isoform α, transcript variant V1), P42224 1-750 (protein)
chain: MSQWYELQQLDSKFLEQVHQLYDDSFPMEIRQYLAQWLEKQDWEHAANDVSFATIRFHDLLSQLDDQYSRFSLENNFLLQHNIRKSKRNLQDNFQEDPIQMSMIIYSCLKEERKILENAQRFNQAQSGNIQSTVMLDKQKELDSKVRNVKDKVMCIEHEIKSLEDLQDEYDFKCKTLQNREHETNGVAKSDQKQEQLLLKKMYLMLDNKRKEVVHKIIELLNVTELTQNALINDELVEWKRRQQSACIGGPPNACLDQLQNWFTIVAESLQQVRQQLKKLEELEQKYTYEHDPITKNKQVLWDRTFSLFQQLIQSSFVVERQPCMPTHPQRPLVLKTGVQFTVKLRLLVKLQELNYNLKVKVLFDKDVNERNTVKGFRKFNILGTHTKVMNMEESTNGSLAAEFRHLQLKEQKNAGTRTNEGPLIVTEELHSLSFETQLCQPGLVIDLETTSLPVVVISNVSQLPSGWASILWYNMLVAEPRNLSFFLTPPCARWAQLSEVLSWQFSSVTKRGLNVDQLNMLGEKLLGPNASPDGLIPWTRFCKENINDKNFPFWLWIESILELIKKHLLPLWNDGCIMGFISKERERALLKDQQPGTFLLRFSESSREGAITFTWVERSQNGGEPDFHAVEPYTKKELSAVTFPDIIRNYKVMAAENIPENPLKYLYPNIDKDHAFGKYYSRPKEAPEPMELDGPKGTGYIKTELISVSEVHPSRLQTTDNLLPMSPEEFDEVSRIVGSVEFDSMMNTV
  binding: binds

— PMC4467123
